Laboratory results as given in US12016918B2 (UNIVERSITEIT LEIDEN, priority 2017, dated 2024).

Tests used:
[1] = general procedure: Fmoc solid-phase peptide synthesis; Tentagel S RAM; HCTU; PyBOP/DiPEA for building block 14; settings: whole synthesis, scale 0.05 mmol
[2] = general procedure: Fmoc solid-phase peptide synthesis; Tentagel S RAM resin (loading 0.23 mmol/g); preloaded leucine resin; HCTU; PyBOP/DiPEA for building block 14; settings: whole synthesis

| Substance | isolated mass [1] [mg] | isolated yield [1] [%] | isolated mass [2] [mg] | isolated yield ([2]; scale of the general procedure 0.05 mmol) [%] |
| --- | --- | --- | --- | --- |
| AcNH-Cys(EtOC(O)C15H31)-SerLysLysLysLys-C(O)NH2 | 5.8 | 7.7 | – | – |
| NH2C(O)NH-Cys(EtOC(O)C15H31)—SerLysLysLysLys-C(O)NH2 | – | – | 3.0 | 4 |
